Paper PMC3989317
Results are given in words; binding and its absence hold for the method and conditions named. Binding seen in cells or lysates may run through a third protein. Some entries that bind do so weakly or less than the wild type.

Sequences of proteins named here, by UniProt entry; tags and fusion partners are left off. A change or cut given only in a name is not applied to a line headed by its entry. A line that says so, or that is headed by a name, gives the form on record, which may keep a tag or linker.
UniProt Q8K4Q0: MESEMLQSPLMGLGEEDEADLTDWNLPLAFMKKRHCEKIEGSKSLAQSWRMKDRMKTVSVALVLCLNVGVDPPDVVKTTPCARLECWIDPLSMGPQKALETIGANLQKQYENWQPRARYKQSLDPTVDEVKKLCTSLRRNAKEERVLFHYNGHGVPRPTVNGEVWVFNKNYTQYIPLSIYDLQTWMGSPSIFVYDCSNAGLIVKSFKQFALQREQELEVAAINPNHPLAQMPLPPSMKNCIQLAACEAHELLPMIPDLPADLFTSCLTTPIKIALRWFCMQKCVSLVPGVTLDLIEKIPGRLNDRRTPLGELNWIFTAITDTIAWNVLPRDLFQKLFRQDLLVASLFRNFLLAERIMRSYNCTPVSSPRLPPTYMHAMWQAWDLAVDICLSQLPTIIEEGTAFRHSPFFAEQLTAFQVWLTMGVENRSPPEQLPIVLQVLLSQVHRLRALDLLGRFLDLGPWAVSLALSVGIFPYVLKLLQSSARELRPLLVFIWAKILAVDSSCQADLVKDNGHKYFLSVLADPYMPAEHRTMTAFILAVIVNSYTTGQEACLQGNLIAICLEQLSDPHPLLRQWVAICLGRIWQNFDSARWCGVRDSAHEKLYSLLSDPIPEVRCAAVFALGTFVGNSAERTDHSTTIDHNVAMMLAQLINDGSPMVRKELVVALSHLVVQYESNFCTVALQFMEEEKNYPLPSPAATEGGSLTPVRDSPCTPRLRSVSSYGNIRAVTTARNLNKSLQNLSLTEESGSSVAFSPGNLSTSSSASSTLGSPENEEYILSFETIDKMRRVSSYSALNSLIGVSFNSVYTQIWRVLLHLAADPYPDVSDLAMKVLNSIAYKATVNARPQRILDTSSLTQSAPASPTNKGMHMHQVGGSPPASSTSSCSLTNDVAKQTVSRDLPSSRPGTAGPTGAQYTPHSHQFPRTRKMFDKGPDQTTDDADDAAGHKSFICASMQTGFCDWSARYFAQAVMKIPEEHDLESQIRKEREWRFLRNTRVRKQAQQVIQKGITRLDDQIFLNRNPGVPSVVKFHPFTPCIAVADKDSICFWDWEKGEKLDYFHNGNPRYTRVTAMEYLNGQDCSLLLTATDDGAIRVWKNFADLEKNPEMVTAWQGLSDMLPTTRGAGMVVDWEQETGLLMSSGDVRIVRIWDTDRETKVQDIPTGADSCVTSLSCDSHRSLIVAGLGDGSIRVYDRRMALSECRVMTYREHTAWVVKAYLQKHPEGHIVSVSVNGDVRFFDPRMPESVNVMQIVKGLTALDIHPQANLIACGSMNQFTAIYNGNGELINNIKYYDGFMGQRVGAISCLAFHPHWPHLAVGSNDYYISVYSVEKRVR
FLAG-tagged wild-type RagB (Q5VZM2-2, form named): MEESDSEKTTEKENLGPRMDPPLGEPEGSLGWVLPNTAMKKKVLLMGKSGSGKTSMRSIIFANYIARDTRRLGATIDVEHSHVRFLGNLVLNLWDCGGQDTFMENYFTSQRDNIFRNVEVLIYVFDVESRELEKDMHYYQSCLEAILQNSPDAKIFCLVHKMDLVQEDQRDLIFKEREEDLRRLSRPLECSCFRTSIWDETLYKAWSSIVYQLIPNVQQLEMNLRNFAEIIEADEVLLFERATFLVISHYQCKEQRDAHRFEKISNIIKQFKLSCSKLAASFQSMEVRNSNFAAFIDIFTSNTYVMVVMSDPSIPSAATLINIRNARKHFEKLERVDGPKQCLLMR

Assays:
[1] = target: Raptor (mouse (endogenous in C2C12)) (UniProt Q8K4Q0); test: co-IP; C2C12 cells transiently expressing FLAG-RagB, serum starved, with or without 50 µM UA and 10 mM leucine; in-cell cross-linking with 1 mg/ml DSP before lysis (0.3% CHAPS); Raptor immunoprecipitated, associated proteins detected by Western blot
[2] = target: FLAG-tagged wild-type RagB (UniProt Q5VZM2); test: co-IP; C2C12 cells transiently expressing FLAG-RagB, serum starved, with or without leucine and 50 µM UA; in-cell cross-linking with DSP before lysis (0.3% CHAPS); FLAG-RagB immunoprecipitated with the FLAG antibody, mTOR and Raptor detected by Western blot

## FLAG-tagged wild-type RagB (from UniProt Q5VZM2-2 1-346)
[1]
  binding: binds

## Raptor (from UniProt Q8K4Q0 1-1335)
[2]
  binding: binds
